## Percent effect of library compounds

The chains behind the UniProt entries cited, without tags or fusion partners. Residues count along the entry.
UniProt P9WNZ1, whole entry: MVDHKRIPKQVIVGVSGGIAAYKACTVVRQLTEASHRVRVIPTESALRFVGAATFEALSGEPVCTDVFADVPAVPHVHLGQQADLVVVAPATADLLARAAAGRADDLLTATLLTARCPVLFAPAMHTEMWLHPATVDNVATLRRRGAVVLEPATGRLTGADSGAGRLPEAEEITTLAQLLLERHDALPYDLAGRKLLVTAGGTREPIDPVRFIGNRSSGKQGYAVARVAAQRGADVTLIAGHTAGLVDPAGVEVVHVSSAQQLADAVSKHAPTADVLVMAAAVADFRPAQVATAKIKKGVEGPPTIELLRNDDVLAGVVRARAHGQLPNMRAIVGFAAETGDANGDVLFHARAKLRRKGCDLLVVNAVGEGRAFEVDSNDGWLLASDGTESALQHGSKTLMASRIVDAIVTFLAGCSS
UniProt I6X8D2, whole entry: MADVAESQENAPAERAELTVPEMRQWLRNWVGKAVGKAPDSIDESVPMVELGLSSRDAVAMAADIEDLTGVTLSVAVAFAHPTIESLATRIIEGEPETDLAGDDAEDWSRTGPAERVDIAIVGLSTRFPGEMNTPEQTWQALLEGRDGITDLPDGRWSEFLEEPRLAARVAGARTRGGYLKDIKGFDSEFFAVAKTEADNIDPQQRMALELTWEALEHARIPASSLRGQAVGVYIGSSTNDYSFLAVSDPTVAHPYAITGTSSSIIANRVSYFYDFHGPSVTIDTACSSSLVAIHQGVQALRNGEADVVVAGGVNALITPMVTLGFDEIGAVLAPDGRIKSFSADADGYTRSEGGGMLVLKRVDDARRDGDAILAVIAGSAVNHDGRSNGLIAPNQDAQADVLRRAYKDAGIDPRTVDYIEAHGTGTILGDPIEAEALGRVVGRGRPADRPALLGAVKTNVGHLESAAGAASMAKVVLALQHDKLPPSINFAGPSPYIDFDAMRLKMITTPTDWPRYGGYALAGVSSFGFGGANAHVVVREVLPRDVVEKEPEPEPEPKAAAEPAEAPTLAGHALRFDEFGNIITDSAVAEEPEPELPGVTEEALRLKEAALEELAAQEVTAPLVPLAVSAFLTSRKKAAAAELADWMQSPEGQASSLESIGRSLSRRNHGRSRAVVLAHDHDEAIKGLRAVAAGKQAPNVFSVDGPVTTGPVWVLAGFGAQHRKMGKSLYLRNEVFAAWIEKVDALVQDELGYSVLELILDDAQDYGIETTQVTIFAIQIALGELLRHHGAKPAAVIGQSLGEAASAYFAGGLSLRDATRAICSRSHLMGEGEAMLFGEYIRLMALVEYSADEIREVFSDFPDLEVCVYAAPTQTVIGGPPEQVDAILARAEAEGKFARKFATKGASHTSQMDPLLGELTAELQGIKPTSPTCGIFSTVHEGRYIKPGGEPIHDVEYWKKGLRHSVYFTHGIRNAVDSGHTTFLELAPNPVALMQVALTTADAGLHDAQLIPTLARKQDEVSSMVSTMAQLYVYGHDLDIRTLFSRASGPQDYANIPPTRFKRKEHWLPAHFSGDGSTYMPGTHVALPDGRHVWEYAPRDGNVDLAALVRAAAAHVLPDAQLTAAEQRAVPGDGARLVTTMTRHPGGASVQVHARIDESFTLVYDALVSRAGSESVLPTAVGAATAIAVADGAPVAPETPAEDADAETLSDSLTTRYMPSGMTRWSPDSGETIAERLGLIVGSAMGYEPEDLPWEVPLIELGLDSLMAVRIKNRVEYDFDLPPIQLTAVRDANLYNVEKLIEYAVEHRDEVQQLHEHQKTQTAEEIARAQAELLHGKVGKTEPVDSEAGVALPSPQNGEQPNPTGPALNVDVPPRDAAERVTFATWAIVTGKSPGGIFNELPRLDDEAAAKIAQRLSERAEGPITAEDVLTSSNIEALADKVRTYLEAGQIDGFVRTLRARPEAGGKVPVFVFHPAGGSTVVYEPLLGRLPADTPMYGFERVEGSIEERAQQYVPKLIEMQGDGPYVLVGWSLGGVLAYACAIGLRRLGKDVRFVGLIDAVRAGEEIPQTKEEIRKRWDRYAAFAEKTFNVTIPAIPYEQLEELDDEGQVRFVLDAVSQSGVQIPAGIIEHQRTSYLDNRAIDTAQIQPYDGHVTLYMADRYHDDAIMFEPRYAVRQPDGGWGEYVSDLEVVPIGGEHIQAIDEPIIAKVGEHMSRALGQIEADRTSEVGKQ
UniProt P9WFT3, whole entry: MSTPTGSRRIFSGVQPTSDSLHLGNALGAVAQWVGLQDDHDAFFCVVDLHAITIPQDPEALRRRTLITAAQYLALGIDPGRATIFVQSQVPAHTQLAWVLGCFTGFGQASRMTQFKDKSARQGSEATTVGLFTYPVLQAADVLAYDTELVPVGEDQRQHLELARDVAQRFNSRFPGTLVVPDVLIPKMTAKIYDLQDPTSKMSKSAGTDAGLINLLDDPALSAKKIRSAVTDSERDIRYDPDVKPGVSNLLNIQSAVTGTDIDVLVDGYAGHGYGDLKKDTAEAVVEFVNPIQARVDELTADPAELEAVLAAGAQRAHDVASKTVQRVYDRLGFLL
UniProt A4I591, 1-473: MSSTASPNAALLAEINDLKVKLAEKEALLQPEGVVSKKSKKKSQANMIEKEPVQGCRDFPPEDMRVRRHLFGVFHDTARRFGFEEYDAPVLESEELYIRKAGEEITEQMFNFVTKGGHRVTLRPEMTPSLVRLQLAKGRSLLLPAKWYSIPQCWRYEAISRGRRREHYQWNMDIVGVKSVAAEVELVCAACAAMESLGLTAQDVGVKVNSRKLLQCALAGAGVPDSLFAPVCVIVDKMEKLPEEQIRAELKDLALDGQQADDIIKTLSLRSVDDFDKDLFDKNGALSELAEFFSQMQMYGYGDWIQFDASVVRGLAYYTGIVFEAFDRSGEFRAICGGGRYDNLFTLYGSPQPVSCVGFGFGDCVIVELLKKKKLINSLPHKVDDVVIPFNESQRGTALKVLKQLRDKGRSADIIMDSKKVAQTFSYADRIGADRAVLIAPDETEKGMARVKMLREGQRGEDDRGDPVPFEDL

The values are deposited in ChEMBL (CHEMBL3988442, “University of Dundee, Small-Polar-MMV Screening Library” (2021)).

The filed quantity is “Percent Effect” (%). How 0% and 100% were set is not recorded. Most values in the screen are low, and negative values occur. This is an unselected part of the compounds tested.

A: 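Enzyme assay of CoaBC with a phosphate dye (Biomol Green) read at 650 nm. Target: Coenzyme A biosynthesis protein CoaBC, Mycobacterium tuberculosis (UniProt P9WNZ1). Compounds at 30 µM. Direction is inferred from only a few compounds that gave an IC50; most scored high, so higher reads as stronger inhibition. Most strong results did not repeat in a second test. Size under these conditions: about 67,000 compounds, about 40 of them at 50% or above in at least one test.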
B: 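Enzyme assay of the thioesterase domain of polyketide synthase 13; the read-out is not stated. Target: Polyketide synthase Pks13, Mycobacterium tuberculosis (UniProt I6X8D2). Concentration: 30 µM. Higher reads as stronger inhibition (inferred from which compounds were picked for retests). Of about 67,000 compounds tested this way, about 300 (0.46%) reached 50% or more in at least one test.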
C: 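Tryptophan-tRNA ligase, Mycobacterium tuberculosis (UniProt P9WFT3). Enzyme assay of tryptophanyl-tRNA synthetase; the read-out is not stated. Compounds at 10 µM. Higher most likely means stronger inhibition; the record gives no direction and few retests gave an IC50. Size under these conditions: about 65,000 compounds, about 64 of them at 50% or above in at least one test.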
D: 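Histidine-tRNA ligase, Leishmania infantum (UniProt A4I591). Enzyme assay of histidyl-tRNA synthetase; the read-out is not stated. Concentration: 30 µM. Direction is inferred from retests: higher values go with stronger inhibition. The assay is labelled LdHisRS but filed under L. infantum. About 69,000 compounds were tested under these conditions; 0.6% (about 410) showed 50% or more at least once.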

structure: Cc1nc(-c2cnn(C)c2)nc2c1CN(C(=O)c1ccc[nH]1)CC2
A: 3.415
B: -30.6
C: 2.75
D: 14.29

structure: Cc1nc(COCc2cnc3n2CCN(CC2CCC2)C3C)cs1 (stereo not given)
A: 2.919
B: -3.641
C: 1.784
D: 18.87

structure: C[C@@H]1CN(c2nc(O)cc(Cc3ccccc3F)n2)C[C@H](C)O1
A: 4.662
B: -12.54
C: 7.416
D: 0

structure: CCc1cc(C(F)(F)F)n2nc(C3CCCN3C3CCSCC3)cc2n1 (stereo not given)
A: 2.628
B: 17.6
C: -11.75
D: 21.74

structure: Cc1csc([C@H]2C[C@@H]3CCN(Cc4cnn(C)c4)C[C@H]3O2)n1
A: 0.8157
B: -28.64
C: -1.526
D: 28.77

structure: CC(=O)N1CCCC(c2cnc(-c3c(C)nn(C)c3C)cn2)C1 (stereo not given)
A: 10.62
B: -32.56
C: 3.172
D: 5.109

structure: COc1ccc(-c2cc3nn(CC(N)=O)c(=O)n3c(C)n2)cc1
A: -2.421
B: 2.942
C: 2.467
D: 15.22

structure: CC(NS(C)(=O)=O)C(=O)N1CCCN(Cc2cscn2)CC1 (stereo not given)
A: -0.5115
B: -14.43
C: -2.288
D: 11.01

structure: COc1cccc(S(=O)(=O)NC(=O)CCC2CCCC2)c1
A: -1.161
B: -19.35
C: 0
D: 8.696

structure: Cc1cc(S(=O)(=O)NC(=O)CCc2cccnc2)c(C)s1
A: 9.728
B: 3.746
C: 0.9497
D: 13.51

structure: CC(O)CCN(C)c1nc2ccccc2c(=O)[nH]1 (stereo not given)
A: 15.2
B: -35.47
C: 0.2244
D: 13.79

structure: c1ccc(CN2CCOCC3(CCN(C4CCOCC4)C3)C2)cc1 (stereo not given)
A: -3.475
B: -2.558
C: 0.8629
D: 9.804

structure: CC(C)c1ccc(OCCNC(=O)CN2CCN(C)CC2C)cc1 (stereo not given)
A: -2.864
B: -22.06
C: 11.42
D: 20.18

structure: Cc1cc2ccccc2n1CC(=O)NCC(=O)N1CCOCC1
A: -14.32
B: -8.216
C: -0.5663
D: 16.85

structure: Cn1cc(C2CCCN2C(=O)CCCc2cccs2)cn1 (stereo not given)
A: 1.02
B: 13.3
C: -11.16
D: 20

structure: Clc1ccc(-c2nc(CN3CCCC3Cn3cncn3)co2)cc1 (stereo not given)
A: -4.318
B: -3.749
C: -2.985
D: 7.143

structure: CC[C@H](C)[C@@H](CO)NC(C)Cc1ccc(Cl)cc1 (stereo not given in full)
A: 1.818
B: -11.79
C: 2.79
D: 6.122

structure: CCn1ccnc1S(=O)(=O)Cc1c(C)cc(C)c(C(C)=O)c1C
A: 4.43
B: -32.63
C: 1.324
D: 14.29

structure: COCC(=O)N1CCCC1c1ccnc(Nc2cnccn2)n1 (stereo not given)
A: -0.5556
B: -46.79
C: -1.087
D: 19.44

structure: CC(C)COC1CCN(S(=O)(=O)Cc2cccc(F)c2)CC1
A: 6.234
B: -1.56
C: 1.93
D: 24.39

structure: CCC[C@H]1CN(c2cncc(C(=O)N3CCCCC3)n2)C[C@@H]1N(C)C
A: 3.648
B: -19.47
C: 3.265
D: 10.62

structure: COCC(=O)N1C[C@@H](c2cc(O)nc(C)n2)[C@H](c2ccccc2F)C1
A: -4.686
B: -20.06
C: 13.32
D: -4.225

structure: CC(NC1CCN(CCS(C)(=O)=O)CC1)c1ccc(Cl)cc1 (stereo not given)
A: -2.772
B: -10.62
C: -7.043
D: 3.846

structure: Cc1cc(C)n(CC(=O)NC2CCCCNC2=O)n1 (stereo not given)
A: -3.361
B: -17.79
C: -5.489
D: 7.692

structure: CC(=O)NC1CCCN(Cc2ccc(-n3ccnc3)cc2)C1 (stereo not given)
A: 4.4
B: -32.66
C: -2.773
D: 17.95

structure: N#Cc1ccnc(N2CCN(CC(O)c3ccccc3)CC2)c1 (stereo not given)
A: 0.1972
B: -22.28
C: -1.016
D: 18.18

structure: CC(=O)Cn1c(C)cc(=O)c2cc(F)ccc21
A: -1.635
B: 3.839
C: -0.4082
D: 7.08

structure: CC(C)(CC(=O)N(CC(N)=O)C1CCCC1)c1ccccc1
A: 1.768
B: 5.082
C: -0.7261
D: 11.4

structure: COc1ccc(C)cc1CN1CCN(Cc2nccn2C)CC1
A: 0.495
B: -2.982
C: -5.048
D: 20

structure: CC(CNCC1(S(C)(=O)=O)CCOCC1)c1ccc(F)cc1 (stereo not given)
A: 1.899
B: -17.27
C: 1.636
D: 24.68

structure: CCn1ccnc1CN1CCN(C(C)C(=O)NC2CCCCC2)CC1 (stereo not given)
A: 2.394
B: -8.687
C: -2.987
D: 7.2

structure: CN(Cc1noc(C2CC2)n1)C1CCN(CCn2cccn2)C1 (stereo not given)
A: 8.285
B: -6.304
C: 0.9266
D: 11.67

structure: FC1(F)CCN(Cc2cccnc2)CC12CCN(c1cnccn1)C2 (stereo not given)
A: 1.713
B: 7.15
C: -0.6785
D: 20.55

structure: COc1c(C)cnc(CN(C)C(=O)c2cccnc2N(C)C)c1C
A: 0.6479
B: -24.34
C: 2.034
D: 1.653

Repeated from the top, 2 entries:

- Cc1nc(-c2cnn(C)c2)nc2c1CN(C(=O)c1ccc[nH]1)CC2 : A: 3.415%; B: -30.6%; C: 2.75%; D: 14.29%
- Cc1nc(COCc2cnc3n2CCN(CC2CCC2)C3C)cs1 (stereo not given) : A: 2.919%; B: -3.641%; C: 1.784%; D: 18.87%